Data source: PubChem BioAssay AID720505 (Drosophila RNAi Screening Center, 2013)
The screen tested about 20,000 reagents; this is an unselected part of those with a known target gene and a result. Of all reagents, about 2,100 (10%) got an active call. 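Raw plate signals without normalisation; calls rest on control-based scores that were not deposited; replicate 2 separates called from uncalled poorly.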 Entries without a mark were called inactive. Names joined by + are all predicted targets of the reagent. Not given: the amount of reagent, the time to read-out.

Assay: 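Knock-downs that reduce calcium influx once internal stores are emptied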 (primary screen)
System: Drosophila S2R+ cells
Reagent: long dsRNA against Drosophila genes
Challenge: thapsigargin (2 µM) in calcium-free buffer to empty internal stores, then 2 mM calcium added back
Read-out: 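Stores emptied by 2 µM thapsigargin without calcium, then 2 mM calcium re-added; fluo-4 fluorescence followed by FLIPR in 384-well plates, per-well averaged endpoint, raw; two screen passes, some wells retested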
Reading the numbers: calcium signal and retest calcium signal: higher = more calcium entry after store depletion
Call rule: 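About 1500 genes called as lowering calcium entry, by varying amounts, judged against per-plate control wells with STIM1 as positive and Rho1 as negative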
Meaning of the calls: active = called as lowering calcium entry; inactive = not called

Gene	dsRNA	calcium signal, replicate 1	calcium signal, replicate 2	retest calcium signal, replicate 1	retest calcium signal, replicate 2
mRpS5	DRSC21380	143	113		
Cyp12c1	DRSC11125	119	106		
Taf13	DRSC02106	141	115		
dsx-c73A	DRSC09914	115	160		
dsx-c73A	DRSC10429	91.5	218		
usp	DRSC18847	98.5	122		
CG42376 + cin	DRSC18752	119	129		
Eno	DRSC00750	176	118		
dpr20	DRSC08265	115	112		
Ag5r2	DRSC19328	113	136		
CG6277	DRSC16008	160	175		
CG11570	DRSC09844	124	119		
MFS9	DRSC15560	173	220		
CG7203	DRSC03026	112	88.6		
Cnx99A + Cnx14D	DRSC16610	107	106		
Acsx4	DRSC14311	168	159		
CG13949	DRSC00367	61.2 (active)	106	117	98.7
CG12795	DRSC00354	158	85.6		
Naa80	DRSC16429	124	121		
CG9920	DRSC16578	126	131		
FRG1	DRSC10648	73.5	148		
CG18666	DRSC02694	172	136		
Rsf1	DRSC03423	122	137		
Rsf1	DRSC21953	89	218		
DAAM	DRSC18479	110	159		
CG5162	DRSC19935	104	122		
yrt	DRSC16559	120	140		
hdly	DRSC15849	276	170		
CG14478	DRSC06450	122	152		
CG7079	DRSC16192	228	151		
tim	DRSC00841	128	307		
CG11436	DRSC17783	127	115		
CG10834	DRSC03693	107	100		
tej	DRSC07219	124	145		
Dred	DRSC11057	74.5	162		
Dred	DRSC11059	97.1	143		
Dlip3	DRSC07401	191	106		
mms4	DRSC06249	98.4	112		
CG17991	DRSC15294	143	146		
NAAT1	DRSC18300	117	91.2		
CG10195	DRSC02026	131	76.1		
Irc	DRSC16454	176	289		
pyr	DRSC06319	77.4	158	10064	149
pyr	DRSC22520	88.9	70.8		
PIG-C	DRSC08241	85.8	116		
tow	DRSC10192	80.9	52.2		
tow	DRSC23125	94.2	166		
CG10474	DRSC05993	112	120		
CG9458	DRSC16495	150	108		
tkv	DRSC00860	68.5	130		
tkv	DRSC03623	95.5	290		
tkv	DRSC22606	103	143		
CG17472	DRSC02622	174	97.5		
CG31556 (retired record)	DRSC12122	9962 (active)	174		
CG31556 (retired record)	DRSC22177	112	225		
cwo	DRSC17072	148	110		
CG2224	DRSC15429	154	144		
CG4293	DRSC18557	96.5	146		
I-3	DRSC20479	244	125		
RpL31	DRSC06716	105	124		
CG10638	DRSC09762	135	121		
Pa1	DRSC19422	106	91.7		
CG18273	DRSC18150	65.2 (active)	105		
CG18273	DRSC18505	93	147	64.5	75.3
Miox	DRSC10747	95	104		
CG31121	DRSC15361	146	116		
CG31121	DRSC15363	88.5 (active)	98.5		

Next part (5 carried over from the part before).
Gene	dsRNA	calcium signal, replicate 1	calcium signal, replicate 2	retest calcium signal, replicate 1	retest calcium signal, replicate 2
CG18273	DRSC18150	65.2 (active)	105		
CG18273	DRSC18505	93	147	64.5	75.3
Miox	DRSC10747	95	104		
CG31121	DRSC15361	146	116		
CG31121	DRSC15363	88.5 (active)	98.5		
Ir60e	DRSC04227	123	174		
CG11267	DRSC09833	102	99.4		
CG3092	DRSC04336	162	73.4		
CR1075	DRSC12144	92.2	167		
Klp31E	DRSC03354	132	122		
CG7497	DRSC10857	147	120		
mei-S332	DRSC04704	108	95.2		
CG34450	DRSC17822	131	133		
CG7236	DRSC03037	123	111		
CG14020	DRSC02350	69.8 (active)	141		
CG32772	DRSC18052	252	85.2	9239	132
CG32772	DRSC18406	88.1	106		
CG32772	DRSC22349	106	209		
AstA	DRSC14634	218	106		
Fife	DRSC08262	65.4 (active)	112		
Fife	DRSC08409	90	107		
Fife	DRSC08499	74.4	72.2		
tw	DRSC18537	149	110		
Sox15	DRSC07555	123	148		
Itpr	DRSC12354	132	128		
CG2680	DRSC18466	148	183		
Fbp2	DRSC03327	108	113		
CG12069	DRSC14470	212	171		
CG11030	DRSC02120	126	98.2		
CG32369	DRSC10042	97.9	69.3		
CG32369	DRSC10834	67.9 (active)	123		
CG6972	DRSC16159	119	110		
CG31267	DRSC15748	114	139		
Phf5a	DRSC03261	93.3	93.8		
Ptip	DRSC10660	78.9	108		
Ptip	DRSC11048	105	141		
CG14568	DRSC11729	59.2 (active)	170		
CG13675	DRSC10034	58.6	66.4		
CG13675	DRSC23124	104	185		
Spt3	DRSC15465	224	73.6		
CG13531	DRSC04173	105	224		
gammaCOP	DRSC16955	61.4 (active)	76.7		
Phb1	DRSC03563	92	130		
CG8728	DRSC07251	136	78.7		
